Laboratory results as given in patent US9803019B2, “Carrier immunoglobulins and uses thereof” (Amgen Inc., priority 2010, dated 2017).
Where two headings read alike, the source gives them in different places. At least one peptide structure holds a part that was inferred or is arguable (an end, a ring closure or a residue).

By UniProt entry, the sequences of proteins in these tests, tags left out.
UniProt P22001, whole entry: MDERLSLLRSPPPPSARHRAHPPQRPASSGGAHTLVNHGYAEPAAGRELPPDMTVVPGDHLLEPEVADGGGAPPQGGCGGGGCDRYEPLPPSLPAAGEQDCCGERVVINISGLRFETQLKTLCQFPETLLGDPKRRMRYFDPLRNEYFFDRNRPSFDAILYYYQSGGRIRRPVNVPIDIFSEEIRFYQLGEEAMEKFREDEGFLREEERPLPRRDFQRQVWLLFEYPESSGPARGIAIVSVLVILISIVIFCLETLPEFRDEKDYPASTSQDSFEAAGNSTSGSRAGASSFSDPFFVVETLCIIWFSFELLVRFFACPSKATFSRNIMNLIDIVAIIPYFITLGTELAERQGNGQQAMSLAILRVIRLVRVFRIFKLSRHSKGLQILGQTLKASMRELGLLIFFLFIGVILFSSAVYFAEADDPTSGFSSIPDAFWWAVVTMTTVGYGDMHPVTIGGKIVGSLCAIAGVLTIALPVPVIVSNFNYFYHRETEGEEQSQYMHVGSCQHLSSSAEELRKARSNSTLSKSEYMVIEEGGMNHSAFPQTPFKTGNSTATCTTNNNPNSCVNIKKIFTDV

Biological target: T1, Kv1.3 (Homo sapiens, UniProt P22001)
T1 construct: endogenous in cells; host or cells: T cells in 50% human whole blood from multiple donors
Experiment: Human whole blood assay: thapsigargin-induced IL-2 and IFN-γ secretion
Format: cell-based
Conditions: for IC50: human whole blood
Method: An ex vivo assay was employed to examine impact of toxin peptide analog Kv1.3 inhibitors on secretion of IL-2 and IFN-γ. […] In brief, 50% human whole blood was stimulated with thapsigargin to induce store depletion, calcium mobilization and cytokine secretion. […] After 48 hours at 37° C. and 5% CO2, conditioned medium was collected and the level of cytokine secretion was determined using a 4-spot electrochemiluminescent immunoassay from MesoScale Discovery. […] Kv1.3 is the major voltage-gated potassium channel present on T cells. Allowing for K^+ efflux, Kv1.3 provides the driving force for continued Ca^2+ influx which is necessary for the sustained elevation in intracellular calcium needed for efficient T cell activation and cytokine secretion. […] Therefore, we employed a bioassay whereby the bioactivity of Kv1.3 inhibitors is assessed by examining their ability to block thapsigargin-induced cytokine secretion from T cells in human whole blood.

CC[C@H](C)[C@@H]1NC(=O)[C@@H](NC(=O)[C@H](CO)NC(=O)[C@@H](N)CCCNC(=N)N)CSSC[C@@H](C(=O)O)NC(=O)[C@H]([C@@H](C)O)NC(=O)CNC(=O)[C@@H]2CSSC[C@@H]3NC(=O)[C@H](CCC(N)=O)NC(=O)[C@H](Cc4ccccc4)NC(=O)[C@H](C)NC(=O)[C@H]([C@@H](C)O)NC(=O)[C@H](CSSC[C@H](NC(=O)[C@H](Cc4ccccc4)NC(=O)[C@H](CO)NC(=O)[C@H](CC(C)C)NC(=O)[C@H](CCCNC(=N)N)NC(=O)[C@H](Cc4ccc(O)cc4)NC(=O)[C@H](CCCCN)NC(=O)[C@H](CCSC)NC(=O)[C@H](CO)NC(=O)[C@H](Cc4cnc[nH]4)NC(=O)[C@H](CCCCN)NC3=O)C(=O)N[C@@H](CCCNC(=N)N)C(=O)N[C@@H](CCCCN)C(=O)N[C@@H]([C@@H](C)O)C(=O)N2)NC(=O)[C@H](CCCNC(=N)N)NC(=O)[C@H](CO)NC(=O)[C@H](CCCCN)NC(=O)[C@@H]2CCCN2C(=O)[C@H]([C@@H](C)CC)NC(=O)[C@H]([C@@H](C)O)NC(=O)[C@H](CC(=O)O)NC1=O [ShK(1-35), ShK]
Potency Relative to ShK (WB, IL2) (ratio of WB IL-2 IC50 to that of ShK(1-35)): 1.00 | IC50 (read-out: WB (IFNg) IC50, IFNg): 0.078 nM | IC50 (read-out: WB (IL-2) IC50, IL-2): 0.067 nM
